Assay results from publication PMC7255037.
These are yes or no findings as the source states them, for the method shown. Binding seen in cells or lysates may run through a third protein. Some entries that bind do so weakly or less than the wild type.

Amino acid sequences for entries named in this document (tags omitted).
UniProt P09874: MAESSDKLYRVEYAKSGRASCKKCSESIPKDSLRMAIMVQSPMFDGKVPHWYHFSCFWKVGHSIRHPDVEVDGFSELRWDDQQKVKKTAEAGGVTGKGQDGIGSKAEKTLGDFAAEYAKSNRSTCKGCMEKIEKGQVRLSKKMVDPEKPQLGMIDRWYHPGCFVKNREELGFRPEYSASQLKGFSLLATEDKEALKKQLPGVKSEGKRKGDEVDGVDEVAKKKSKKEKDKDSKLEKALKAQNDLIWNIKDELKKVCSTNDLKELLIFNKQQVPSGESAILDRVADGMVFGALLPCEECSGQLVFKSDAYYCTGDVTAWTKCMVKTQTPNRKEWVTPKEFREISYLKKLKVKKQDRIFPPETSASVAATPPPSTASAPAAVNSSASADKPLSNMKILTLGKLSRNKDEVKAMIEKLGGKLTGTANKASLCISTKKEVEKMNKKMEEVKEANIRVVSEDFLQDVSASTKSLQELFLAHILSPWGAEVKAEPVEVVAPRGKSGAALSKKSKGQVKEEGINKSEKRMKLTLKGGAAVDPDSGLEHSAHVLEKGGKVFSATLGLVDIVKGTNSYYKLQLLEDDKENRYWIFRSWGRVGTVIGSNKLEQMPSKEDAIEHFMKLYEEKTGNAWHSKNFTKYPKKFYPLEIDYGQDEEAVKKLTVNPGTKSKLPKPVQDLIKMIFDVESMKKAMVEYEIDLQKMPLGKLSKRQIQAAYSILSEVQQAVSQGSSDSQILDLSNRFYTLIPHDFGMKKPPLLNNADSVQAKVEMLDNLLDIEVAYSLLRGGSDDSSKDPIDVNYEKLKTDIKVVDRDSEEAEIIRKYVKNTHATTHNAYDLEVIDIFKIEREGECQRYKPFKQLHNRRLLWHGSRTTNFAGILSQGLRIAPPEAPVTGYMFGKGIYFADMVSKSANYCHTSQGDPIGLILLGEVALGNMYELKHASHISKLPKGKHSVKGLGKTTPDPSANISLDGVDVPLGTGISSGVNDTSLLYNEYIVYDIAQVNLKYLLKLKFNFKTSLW
UniProt P40763: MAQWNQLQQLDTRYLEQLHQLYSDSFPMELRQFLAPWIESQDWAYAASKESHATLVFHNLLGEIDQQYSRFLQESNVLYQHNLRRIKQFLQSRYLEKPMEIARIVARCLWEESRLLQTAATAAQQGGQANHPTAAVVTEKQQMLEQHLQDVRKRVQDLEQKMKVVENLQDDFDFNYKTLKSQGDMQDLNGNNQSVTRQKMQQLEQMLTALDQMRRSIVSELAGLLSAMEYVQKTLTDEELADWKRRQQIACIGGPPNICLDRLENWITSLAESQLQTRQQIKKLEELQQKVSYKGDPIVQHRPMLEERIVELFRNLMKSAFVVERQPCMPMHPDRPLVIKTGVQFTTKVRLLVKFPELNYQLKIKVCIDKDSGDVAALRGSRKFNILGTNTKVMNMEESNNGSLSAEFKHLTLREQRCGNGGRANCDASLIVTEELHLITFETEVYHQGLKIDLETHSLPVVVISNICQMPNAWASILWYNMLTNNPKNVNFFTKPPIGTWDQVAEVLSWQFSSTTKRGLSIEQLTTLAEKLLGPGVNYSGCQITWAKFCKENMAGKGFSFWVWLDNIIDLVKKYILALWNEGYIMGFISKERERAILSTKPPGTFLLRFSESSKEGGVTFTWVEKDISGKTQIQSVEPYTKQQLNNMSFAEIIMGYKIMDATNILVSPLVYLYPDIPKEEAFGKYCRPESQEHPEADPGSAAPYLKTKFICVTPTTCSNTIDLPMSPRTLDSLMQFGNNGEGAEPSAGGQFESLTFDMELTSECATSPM

Target: PARP1 (Poly ADP-ribose polymerase 1) (human (endogenous in Huh7)) (UniProt P09874)
Experiment: co-IP; endogenous proteins in Huh7 cell lysate; lysis buffer 50mM Tris-HCl pH 8.0, 150mM NaCl, 5mM EDTA, 0.5% Nonidet P-40; indicated antibodies with protein A/G agarose beads overnight at 4 °C; immunoprecipitation in both directions, then immunoblot; for RNF146 and PARP1 also in TLR9-overexpressing cells (interaction enhanced) and with RNF146 siRNA (interaction reduced)

binding: binds
Substance: STAT3 (Signal transducer and activator of transcription 3) (from UniProt P40763 1-770)
